Measurements published in the supplement of paper PMC12067093, “Discovery and optimisation of a covalent ligand for TRIM25 and its application to targeted protein ubiquitination” (Chemical Science, 2025).
Some of the results follow.

Chains of the proteins cited; added tags and fusions are not shown. Lines headed by an entry give the natural chain unless they say otherwise; changes in a name come on top.
UniProt Q14554: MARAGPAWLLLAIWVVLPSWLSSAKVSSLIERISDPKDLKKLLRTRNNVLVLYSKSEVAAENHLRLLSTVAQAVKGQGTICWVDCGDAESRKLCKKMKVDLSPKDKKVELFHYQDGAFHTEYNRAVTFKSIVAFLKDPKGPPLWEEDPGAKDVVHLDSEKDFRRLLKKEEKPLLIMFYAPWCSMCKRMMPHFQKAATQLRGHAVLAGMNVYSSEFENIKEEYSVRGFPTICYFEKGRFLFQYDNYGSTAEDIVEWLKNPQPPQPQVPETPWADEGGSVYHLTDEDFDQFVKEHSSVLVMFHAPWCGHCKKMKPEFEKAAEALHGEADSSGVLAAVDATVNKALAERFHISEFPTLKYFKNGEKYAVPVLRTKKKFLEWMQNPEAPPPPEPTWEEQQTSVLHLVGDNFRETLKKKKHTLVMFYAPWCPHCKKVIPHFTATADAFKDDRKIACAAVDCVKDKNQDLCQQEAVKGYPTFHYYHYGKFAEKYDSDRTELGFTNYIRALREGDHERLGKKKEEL
UniProt Q9BUH6, whole entry, looked up: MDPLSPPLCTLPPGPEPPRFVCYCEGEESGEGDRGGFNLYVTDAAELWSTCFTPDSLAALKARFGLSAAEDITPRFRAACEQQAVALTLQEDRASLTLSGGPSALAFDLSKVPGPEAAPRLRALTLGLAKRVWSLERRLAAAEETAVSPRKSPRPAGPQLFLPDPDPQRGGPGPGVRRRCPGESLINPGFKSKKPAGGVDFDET
UniProt Q14690: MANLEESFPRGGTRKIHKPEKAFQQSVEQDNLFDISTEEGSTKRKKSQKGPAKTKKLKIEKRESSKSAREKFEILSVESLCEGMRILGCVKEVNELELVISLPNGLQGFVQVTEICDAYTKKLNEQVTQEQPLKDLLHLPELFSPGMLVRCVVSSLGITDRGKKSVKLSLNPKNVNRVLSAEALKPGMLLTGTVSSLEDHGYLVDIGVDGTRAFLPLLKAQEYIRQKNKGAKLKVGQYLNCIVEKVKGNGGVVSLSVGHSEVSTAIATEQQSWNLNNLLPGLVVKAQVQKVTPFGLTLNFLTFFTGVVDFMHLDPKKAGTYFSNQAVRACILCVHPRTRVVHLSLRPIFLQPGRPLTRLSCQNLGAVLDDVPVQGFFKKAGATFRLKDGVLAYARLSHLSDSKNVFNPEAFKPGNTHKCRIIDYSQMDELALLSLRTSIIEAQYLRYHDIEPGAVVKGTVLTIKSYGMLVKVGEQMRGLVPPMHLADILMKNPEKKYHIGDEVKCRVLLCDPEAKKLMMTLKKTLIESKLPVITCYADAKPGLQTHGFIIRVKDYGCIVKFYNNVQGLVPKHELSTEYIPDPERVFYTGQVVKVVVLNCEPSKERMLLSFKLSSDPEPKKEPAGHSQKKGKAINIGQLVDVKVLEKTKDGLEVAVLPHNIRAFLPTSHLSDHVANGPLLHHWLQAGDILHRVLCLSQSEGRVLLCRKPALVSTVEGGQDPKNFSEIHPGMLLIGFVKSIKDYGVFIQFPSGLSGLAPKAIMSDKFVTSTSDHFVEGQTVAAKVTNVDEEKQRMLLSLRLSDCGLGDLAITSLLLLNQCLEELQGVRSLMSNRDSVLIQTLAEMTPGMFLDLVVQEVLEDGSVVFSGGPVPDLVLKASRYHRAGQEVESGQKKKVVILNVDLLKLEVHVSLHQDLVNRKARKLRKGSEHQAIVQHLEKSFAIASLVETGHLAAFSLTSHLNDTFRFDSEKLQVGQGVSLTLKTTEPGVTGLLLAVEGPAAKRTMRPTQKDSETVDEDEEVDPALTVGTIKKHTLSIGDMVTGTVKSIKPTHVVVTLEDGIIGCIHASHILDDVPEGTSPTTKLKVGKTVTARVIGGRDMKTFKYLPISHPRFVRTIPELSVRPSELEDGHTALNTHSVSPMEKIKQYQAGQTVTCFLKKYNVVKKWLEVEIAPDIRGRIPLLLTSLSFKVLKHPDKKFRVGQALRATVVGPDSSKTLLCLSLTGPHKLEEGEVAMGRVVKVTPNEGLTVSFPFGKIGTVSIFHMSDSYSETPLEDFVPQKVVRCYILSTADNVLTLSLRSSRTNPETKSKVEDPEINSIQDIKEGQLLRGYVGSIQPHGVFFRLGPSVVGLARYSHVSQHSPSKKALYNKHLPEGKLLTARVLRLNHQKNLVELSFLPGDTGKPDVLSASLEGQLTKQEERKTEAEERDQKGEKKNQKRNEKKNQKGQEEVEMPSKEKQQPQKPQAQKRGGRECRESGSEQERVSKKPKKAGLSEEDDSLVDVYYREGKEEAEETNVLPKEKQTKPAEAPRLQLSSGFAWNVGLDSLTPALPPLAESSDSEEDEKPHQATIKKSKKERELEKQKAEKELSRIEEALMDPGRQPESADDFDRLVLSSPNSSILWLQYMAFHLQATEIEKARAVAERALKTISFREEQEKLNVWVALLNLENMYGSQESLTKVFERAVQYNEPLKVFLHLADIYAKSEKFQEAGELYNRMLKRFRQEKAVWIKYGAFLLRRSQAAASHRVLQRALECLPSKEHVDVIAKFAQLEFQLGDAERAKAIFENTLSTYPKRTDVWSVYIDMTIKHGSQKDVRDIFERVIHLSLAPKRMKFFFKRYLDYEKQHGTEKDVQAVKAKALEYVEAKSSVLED
UniProt O95613: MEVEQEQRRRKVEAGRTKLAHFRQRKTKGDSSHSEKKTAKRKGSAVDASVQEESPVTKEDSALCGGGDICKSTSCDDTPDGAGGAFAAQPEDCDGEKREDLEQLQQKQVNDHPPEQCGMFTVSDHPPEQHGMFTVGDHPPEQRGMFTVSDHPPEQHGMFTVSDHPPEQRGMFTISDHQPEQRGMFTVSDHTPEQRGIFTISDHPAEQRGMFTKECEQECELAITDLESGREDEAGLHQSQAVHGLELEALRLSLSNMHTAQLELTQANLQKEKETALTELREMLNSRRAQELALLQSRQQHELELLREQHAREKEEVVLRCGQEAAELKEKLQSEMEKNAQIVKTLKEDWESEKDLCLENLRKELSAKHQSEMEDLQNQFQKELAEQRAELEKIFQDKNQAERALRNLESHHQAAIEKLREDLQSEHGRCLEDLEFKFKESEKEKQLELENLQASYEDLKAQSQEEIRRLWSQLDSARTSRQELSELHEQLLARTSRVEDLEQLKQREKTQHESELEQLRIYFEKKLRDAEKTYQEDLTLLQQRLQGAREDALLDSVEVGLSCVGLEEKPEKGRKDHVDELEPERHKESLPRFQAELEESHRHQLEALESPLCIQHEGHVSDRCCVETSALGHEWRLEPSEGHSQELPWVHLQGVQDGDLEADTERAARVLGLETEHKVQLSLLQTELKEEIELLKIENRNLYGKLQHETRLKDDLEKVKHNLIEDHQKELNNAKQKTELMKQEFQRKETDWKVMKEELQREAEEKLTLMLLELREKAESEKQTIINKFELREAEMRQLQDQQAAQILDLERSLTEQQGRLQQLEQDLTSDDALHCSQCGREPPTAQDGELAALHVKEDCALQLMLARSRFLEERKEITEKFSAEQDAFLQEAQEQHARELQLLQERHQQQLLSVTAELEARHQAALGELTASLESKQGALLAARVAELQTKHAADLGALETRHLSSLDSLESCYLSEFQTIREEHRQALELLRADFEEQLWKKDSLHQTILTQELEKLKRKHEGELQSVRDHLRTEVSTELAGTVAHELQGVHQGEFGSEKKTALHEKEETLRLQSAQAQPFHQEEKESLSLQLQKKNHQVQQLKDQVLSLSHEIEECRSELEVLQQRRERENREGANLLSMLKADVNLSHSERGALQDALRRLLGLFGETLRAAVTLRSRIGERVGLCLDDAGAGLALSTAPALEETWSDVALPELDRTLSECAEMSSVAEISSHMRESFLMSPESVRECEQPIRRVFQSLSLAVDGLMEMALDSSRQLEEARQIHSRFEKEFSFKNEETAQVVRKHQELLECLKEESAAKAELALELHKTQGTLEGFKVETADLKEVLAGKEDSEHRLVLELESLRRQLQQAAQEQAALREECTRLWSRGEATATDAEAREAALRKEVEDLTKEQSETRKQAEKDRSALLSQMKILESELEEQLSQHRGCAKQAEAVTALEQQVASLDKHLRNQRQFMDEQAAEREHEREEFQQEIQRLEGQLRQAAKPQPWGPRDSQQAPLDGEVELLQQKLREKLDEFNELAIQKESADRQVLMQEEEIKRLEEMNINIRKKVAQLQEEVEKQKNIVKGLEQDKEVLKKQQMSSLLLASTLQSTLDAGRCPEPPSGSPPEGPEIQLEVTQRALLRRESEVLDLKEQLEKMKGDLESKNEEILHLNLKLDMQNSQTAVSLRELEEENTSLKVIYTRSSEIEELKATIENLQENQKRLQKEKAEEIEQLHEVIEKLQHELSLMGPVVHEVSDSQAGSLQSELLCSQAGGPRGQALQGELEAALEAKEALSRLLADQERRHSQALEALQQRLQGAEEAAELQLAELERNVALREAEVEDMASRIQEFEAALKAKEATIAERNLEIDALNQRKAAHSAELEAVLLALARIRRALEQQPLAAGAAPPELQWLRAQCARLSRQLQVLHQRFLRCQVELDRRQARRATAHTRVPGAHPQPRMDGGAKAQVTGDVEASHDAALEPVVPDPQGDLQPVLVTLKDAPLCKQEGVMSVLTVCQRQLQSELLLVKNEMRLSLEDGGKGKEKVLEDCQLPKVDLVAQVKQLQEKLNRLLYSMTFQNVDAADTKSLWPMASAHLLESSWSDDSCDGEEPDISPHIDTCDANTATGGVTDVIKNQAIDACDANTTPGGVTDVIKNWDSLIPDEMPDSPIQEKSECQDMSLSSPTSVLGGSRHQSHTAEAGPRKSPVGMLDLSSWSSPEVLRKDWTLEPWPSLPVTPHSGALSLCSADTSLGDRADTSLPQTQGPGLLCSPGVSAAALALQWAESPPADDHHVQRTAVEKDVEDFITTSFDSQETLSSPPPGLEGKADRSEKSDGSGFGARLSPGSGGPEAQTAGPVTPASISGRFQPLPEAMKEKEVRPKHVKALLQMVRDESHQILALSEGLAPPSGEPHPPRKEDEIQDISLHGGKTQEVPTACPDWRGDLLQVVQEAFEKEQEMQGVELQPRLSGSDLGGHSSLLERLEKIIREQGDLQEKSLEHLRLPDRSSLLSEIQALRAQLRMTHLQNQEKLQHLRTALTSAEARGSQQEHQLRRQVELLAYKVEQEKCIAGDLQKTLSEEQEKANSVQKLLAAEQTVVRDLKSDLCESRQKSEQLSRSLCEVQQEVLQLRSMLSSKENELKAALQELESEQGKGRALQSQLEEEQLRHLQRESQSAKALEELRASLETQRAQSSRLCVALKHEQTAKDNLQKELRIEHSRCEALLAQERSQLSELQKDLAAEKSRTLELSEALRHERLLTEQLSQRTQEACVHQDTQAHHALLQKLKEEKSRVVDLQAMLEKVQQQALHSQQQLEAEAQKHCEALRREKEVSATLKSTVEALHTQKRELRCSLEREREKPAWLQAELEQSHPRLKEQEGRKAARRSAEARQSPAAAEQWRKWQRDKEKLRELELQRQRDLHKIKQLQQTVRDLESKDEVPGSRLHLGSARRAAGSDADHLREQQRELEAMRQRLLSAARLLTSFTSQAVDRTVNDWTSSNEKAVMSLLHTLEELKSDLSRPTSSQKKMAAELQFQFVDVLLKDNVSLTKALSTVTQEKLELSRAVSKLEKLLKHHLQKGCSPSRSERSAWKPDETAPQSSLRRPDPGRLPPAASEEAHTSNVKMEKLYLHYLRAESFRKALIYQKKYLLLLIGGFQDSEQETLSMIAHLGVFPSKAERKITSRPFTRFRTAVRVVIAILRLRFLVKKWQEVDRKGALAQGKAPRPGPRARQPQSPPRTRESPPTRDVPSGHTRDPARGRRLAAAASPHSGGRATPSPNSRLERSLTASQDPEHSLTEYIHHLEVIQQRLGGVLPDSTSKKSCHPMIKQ
UniProt Q15084: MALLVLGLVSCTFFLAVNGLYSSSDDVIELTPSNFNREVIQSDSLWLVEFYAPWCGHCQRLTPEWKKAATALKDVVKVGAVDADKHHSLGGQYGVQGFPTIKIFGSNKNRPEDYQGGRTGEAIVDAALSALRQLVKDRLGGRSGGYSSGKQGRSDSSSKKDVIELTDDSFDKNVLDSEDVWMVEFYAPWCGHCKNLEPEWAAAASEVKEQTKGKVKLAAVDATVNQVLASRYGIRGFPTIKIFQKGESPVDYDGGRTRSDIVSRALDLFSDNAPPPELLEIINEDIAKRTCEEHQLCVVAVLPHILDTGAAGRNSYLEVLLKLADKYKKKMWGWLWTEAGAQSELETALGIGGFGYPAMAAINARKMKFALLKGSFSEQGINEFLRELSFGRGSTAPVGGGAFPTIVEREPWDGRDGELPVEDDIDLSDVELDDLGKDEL

Compound: CC1Cc2ccccc2N1C(=O)C1CCCN(C1)C(=O)CCl (mixture of isomers) [TRIM25 ligand 11 (diastereomer mixture)]
Assay: probe-labelled cysteine peptide fold change vs DMSO (competition) (log2 fold change); higher = less target engagement (more negative = stronger competition)
Settings: THP-1, incubation time: 4 h
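Also: competitive chemoproteomic profiling in live THP-1 cells with an iodoacetamide desthiobiotin (IA-DTB) probe, comparing probe-labelled peptide intensities in compound-treated cells against DMSO-treated controls.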

Row | Target | probe-labelled cysteine peptide fold change (10 µM) | probe-labelled cysteine peptide fold change (50 µM)
1 | PDE12_Q6L8Q7_268+277_ELESVCVVEAGPGTCTFDHR (UniProt Q6L8Q7) | 0.152 | -0.295
2 | PDIA5_Q14554_456_IACAAVDCVK (UniProt Q14554) | -0.0864 | -0.127
3 | PCIF1_Q9H4Z3_29_EEASLLSHSPGTSNQSQPCSPK (UniProt Q9H4Z3) | -0.0152 | -0.357
4 | PATL1_Q86TB9_589_GKLPGQERPSDDHFVQIMCIR (UniProt Q86TB9) | -0.0345 | -0.16
5 | PDS5A_Q29RF7_1079+1084_LYTVCDVALCVINSK (UniProt Q29RF7) | -0.125 | 0.0661
6 | PCCB_P05166_291_ECHDPSDRLVPELDTIVPLESTK (UniProt P05166) | -0.303 | -0.127
7 | PAXX_Q9BUH6_180_RCPGESLINPGFK (UniProt Q9BUH6) | -0.0792 | -0.0985
8 | PDCD2_Q16342_281_DIPDCPCGAK (UniProt Q16342) | -0.0281 | -0.0259
9 | PDHX_O00330_307_STVPHAYATADCDLGAVLK (UniProt O00330) | 0.089 | -0.262
10 | PDCD7_Q8N8D1_339_GVCPPASADETFTHHLQR (UniProt Q8N8D1) | 0.271 | 0.0549
11 | PARP4_Q9UKK3_380_CKIEHVEQNTEEFLR (UniProt Q9UKK3) | -0.217 | -0.0964
12 | PATZ1_Q9HBE1_297_EAGILPCGLCGK (UniProt Q9HBE1) | 0.00899 | -0.0723
13 | PDLIM5_Q96HC4_213_QPTVTSVCSETSQELAEGQRR (UniProt Q96HC4) | -0.369 | -0.383
14 | PDIA5_Q14554_81_GQGTICWVDCGDAESR (UniProt Q14554) | -0.0225 | -0.0769
15 | PDCD11_Q14690_330+333_ACILCVHPR (UniProt Q14690) | -0.145 | 0.195
16 | PDLIM1_O00151_286_HPECYVCTDCGTNLK (UniProt O00151) | 0.0753 | 0.0963
17 | PCNT_O95613_2446_TQEVPTACPDWR (UniProt O95613) | 0.0627 | -0.0988
18 | PDXDC1_Q6P996_491_LPVLCCTLQLR (UniProt Q6P996) | 0.0841 | 0.128
19 | PCNT_O95613_430_CLEDLEFK (UniProt O95613) | -0.168 | 0.0936

Row | Target | probe-labelled cysteine peptide fold change (10 µM) | probe-labelled cysteine peptide fold change (50 µM)
20 | PDHB_P11177_249_PVGHCLEAAAVLSK (UniProt P11177) | 0.0222 | 0.128
21 | PDCD11_Q14690_333_ACILCVHPR (UniProt Q14690) | -0.024 | 0.176
22 | PCNT_O95613_321_CGQEAAELK (UniProt O95613) | -0.05 | 0.111
23 | PCBP2_Q15366_301_GYWGLDASAQTTSHELTIPNDLIGCIIGR (UniProt Q15366) | -0.0833 | -0.0197
24 | PDCD11_Q14690_361_LSCQNLGAVLDDVPVQGFFKK (UniProt Q14690) | -0.419 | -0.368
25 | PDLIM5_Q96HC4_449_SWHPEEFNCAHCK (UniProt Q96HC4) | 0.0011 | -0.0904
26 | PCK2_Q16822_63_LCQPEGIHICDGTEAENTATLTLLEQQGLIR (UniProt Q16822) | 0.0861 | 0.0794
27 | PAXIP1_Q6ZW49_1029_QNSSLSEIILISCENDLHLCR (UniProt Q6ZW49) | 0.0632 | 0.0876
28 | PDLIM7_Q9NR12_308+311_YLVALGHAYHPEEFVCSQCGK (UniProt Q9NR12) | 0.00692 | 0.0692
29 | PDCD11_Q14690_361_LSCQNLGAVLDDVPVQGFFK (UniProt Q14690) | -0.0405 | -0.0807
30 | PDCD2L_Q9BRP1_80_LLHVFACACPGCSTGGAR (UniProt Q9BRP1) | 0.0401 | -0.0785
31 | PARP4_Q9UKK3_45_FSFSLNPQCTHIILDNADVLSQYQLNSIQK (UniProt Q9UKK3) | -0.502 | -0.13
32 | PDS5B_Q9NTI5_732_YAIHCIHAIFSSK (UniProt Q9NTI5) | -0.00231 | 0.0228
33 | PARP4_Q9UKK3_182_DCPFLISSHFLLDDGMETR (UniProt Q9UKK3) | 0.0239 | -0.0284
34 | PDIA6_Q15084_193_NVLDSEDVWMVEFYAPWCGHCK (UniProt Q15084) | -0.119 | -0.377
35 | PCM1_Q15154_582_TVNSNCEINNR (UniProt Q15154) | -0.0918 | -0.291
36 | PDK1_Q15118_223_HIGSINPNCNVLEVIK (UniProt Q15118) | 0.283 | 0.144
37 | PCNT_O95613_974_HLSSLDSLESCYLSEFQTIR (UniProt O95613) | 0.0898 | -0.0306
38 | PDIA6_Q15084_291+297_RTCEEHQLCVVAVLPHILDTGAAGR (UniProt Q15084) | -0.266 | -0.0759
